# Results from one PubChem assay

Data taken from PubChem BioAssay AID1745848, deposited by NCATS (2022).

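A cell-based luciferase reporter for ATXN2 expression, read by light output at 24 h, with a viability multiplex.
Compounds were tested as a dilution series from about 0.0037 to 57 µM.
The number is the fitted half-maximal inhibitory concentration (AC50); a lower value means a more potent inhibitor.
Calls come from curve class and activity score: actives score 40–100, while inconclusive compounds (weak, partial, poorly fitted or single-point curves) score 1–39.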

Values are in nM.
Every entry below has the call inconclusive.
Only part of the assay is shown, chiefly results filed as inconclusive.
Potencies fitted to partial, single-point or poorly fitting curves are rough.
Activity scores are not listed here.

For COC(=O)Cc1ccc(NC(=S)N2CCN(c3cc(Cl)ccc3C)CC2)cc1 the result was Potency 25118 nM (inhibitor, partial curve, poor fit).
For CC(=O)Oc1ccc(N(C(C)=O)S(=O)(=O)c2cccs2)c2ccccc12 the result was Potency 25118 nM (inhibitor, partial curve, poor fit).
For CCc1nnc(NC(=O)c2ccc(S(=O)(=O)N(C)c3ccccc3)cc2)o1 the result was Potency 3981 nM (inhibitor, single point).
For CCCCN(C)c1nc(-c2ccco2)c2c(c1C#N)CC(C)(C)OC2 the result was Potency 35481 nM (inhibitor, single point).
For Cc1ccnc(NC(c2ccccc2)c2ccc3cccnc3c2O)c1 (stereo not given) the result was Potency 15848 nM (inhibitor, partial curve, poor fit).
For CN1CCN(CC#CCn2c3ccccc3c3ccccc32)CC1 the result was Potency 19952 nM (inhibitor, partial curve, poor fit).
For CN(C)c1nc(N/N=C/c2c[nH]c3ccccc23)nc(N2CCOCC2)n1 the result was Potency 3162 nM (inhibitor, single point).
For CCOc1cc(/C=C(/C#N)c2nc3ccccc3[nH]2)ccc1Oc1ccc([N+](=O)[O-])cn1 the result was Potency 19952 nM (inhibitor, single point).
For CCC(=O)c1ccc(OCC(O)CN(CCc2ccccc2)Cc2ccccc2)cc1 (stereo not given) the result was Potency 2512 nM (inhibitor, partial curve, poor fit).
For O=c1cnnc(N/N=C/c2ccccn2)[nH]1 the result was Potency 1122 nM (inhibitor, full curve, poor fit).
For C=CCc1cccc(/C=N/NC(=O)C[n+]2ccccc2)c1O the result was Potency 14125 nM (inhibitor, partial curve, poor fit).
For C/C(=N\NC(=O)CN(c1ccccc1)S(C)(=O)=O)c1ccccc1O the result was Potency 17782 nM (inhibitor, partial curve, poor fit).
For CCCc1cc(C(=O)Nc2ccc(C(=O)c3ccc(C)cc3)cc2)n(C)n1 the result was Potency 2818 nM (inhibitor, single point).
For NNc1nc(N)c2c(n1)-c1ccccc1CC21CCCC1 the result was Potency 31622 nM (inhibitor, single point).
For CN(C)CCCN(C(=O)c1ccc(S(=O)(=O)N2CCCCCC2)cc1)c1nc2ccc(Br)cc2s1 the result was Potency 7943 nM (inhibitor, single point).
For CCN(CC)CCNC(=O)c1ccc(NC(=O)c2ccc(Cl)c(S(=O)(=O)N3CCCCCC3)c2)cc1 the result was Potency 39810 nM (inhibitor, single point).
For NC(=O)C1CCN(C2=C(Cl)C(=O)c3ccccc3C2=O)CC1 the result was Potency 31622 nM (inhibitor, partial curve, poor fit).
For Cc1nc(Oc2ccc(S(=O)(=O)N3CCOCC3)cc2Cl)c2c3c(sc2n1)CCCC3 the result was Potency 3981 nM (inhibitor, partial curve, poor fit).
For COC1CC(C)C(OC)c2cc(O)cc(c2O)NC(=O)C(C)=CC=CC(C)C(OC(N)=O)C(C)=CC(C)C1OC (stereo not given) the result was Potency 17782 nM (inhibitor, partial curve, poor fit).
For O=c1c2ccc(Cl)cc2nc(-c2ccc([N+](=O)[O-])cc2)n1O the result was Potency 14125 nM (inhibitor, partial curve, poor fit).
For COc1cccc(/C=N/NC(=O)CC(C)O)c1OC/C=C/c1ccccc1 (stereo not given) the result was Potency 5012 nM (inhibitor, partial curve, poor fit).
For COC(=O)c1ccsc1NC(=O)CN1CCN(Cc2ccc3c(c2)OCO3)CC1 the result was Potency 31622 nM (inhibitor, single point).
For COc1ccc(N(C)S(=O)(=O)c2ccc(Cl)c(C(=O)NCCc3ccc(Cl)cc3)c2)cc1 the result was Potency 17782 nM (inhibitor, single point).
For O=C(Nc1ccc(SC(F)F)cc1)c1cc(-c2ccncc2)nc2ccccc12 the result was Potency 3548 nM (inhibitor, partial curve, poor fit).
For CCN(CC)c1cc(C)c2cc(NC(=O)c3ccccc3OC)ccc2n1 the result was Potency 17782 nM (inhibitor, partial curve, poor fit).
For Cc1ccc2nc(-c3ccccc3)nn2c1 the result was Potency 2512 nM (inhibitor, partial curve).
For Cc1ccc(C(=O)COC(=O)c2ccc3c(c2)C(=O)N(c2cccc4ncccc24)C3=O)cc1 the result was Potency 28183 nM (inhibitor, partial curve, poor fit).
For CCc1ccc(NC(=O)C2CCN(S(=O)(=O)c3ccc4c(c3)CC(C)N4C(C)=O)CC2)cc1 (stereo not given) the result was Potency 1778 nM (inhibitor, partial curve).
For NC(Cc1ccccc1)c1csc(Nc2nccc(C(F)(F)F)n2)n1 (stereo not given) the result was Potency 35481 nM (inhibitor, single point).

For reference, 3 entries once more:

structure	Potency (nM)	curve as filed
C=CCc1cccc(/C=N/NC(=O)C[n+]2ccccc2)c1O	14125	inhibitor, partial curve, poor fit
COc1ccc(N(C)S(=O)(=O)c2ccc(Cl)c(C(=O)NCCc3ccc(Cl)cc3)c2)cc1	17782	inhibitor, single point
CCCCN(C)c1nc(-c2ccco2)c2c(c1C#N)CC(C)(C)OC2	35481	inhibitor, single point